Assay results from paper PMC7766085.
No constants are given. Whether binding was seen depends on the method and setting. In cells and extracts the contact can be indirect. Some binding calls cover weakened binding; strength is not graded here. Tags and fused reporters may be left off the sequences shown.

The chains behind the UniProt entries cited, without tags or fusion partners.
UniProt P32121: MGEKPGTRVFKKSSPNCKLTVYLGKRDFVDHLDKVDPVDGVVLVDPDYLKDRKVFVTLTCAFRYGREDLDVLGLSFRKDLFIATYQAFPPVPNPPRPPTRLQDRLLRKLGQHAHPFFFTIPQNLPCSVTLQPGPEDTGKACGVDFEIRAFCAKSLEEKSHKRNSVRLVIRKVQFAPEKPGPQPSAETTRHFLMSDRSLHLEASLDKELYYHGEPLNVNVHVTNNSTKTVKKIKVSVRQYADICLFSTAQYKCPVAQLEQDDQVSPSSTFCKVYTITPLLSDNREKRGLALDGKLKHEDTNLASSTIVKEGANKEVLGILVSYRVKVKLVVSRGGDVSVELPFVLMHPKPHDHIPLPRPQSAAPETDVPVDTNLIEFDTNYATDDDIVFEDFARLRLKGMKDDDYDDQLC

Target: T1, MasR-YFP (human MAS1 oncogene receptor fused to enhanced yellow fluorescent protein) (human) (UniProt P04201)
T1 sequence: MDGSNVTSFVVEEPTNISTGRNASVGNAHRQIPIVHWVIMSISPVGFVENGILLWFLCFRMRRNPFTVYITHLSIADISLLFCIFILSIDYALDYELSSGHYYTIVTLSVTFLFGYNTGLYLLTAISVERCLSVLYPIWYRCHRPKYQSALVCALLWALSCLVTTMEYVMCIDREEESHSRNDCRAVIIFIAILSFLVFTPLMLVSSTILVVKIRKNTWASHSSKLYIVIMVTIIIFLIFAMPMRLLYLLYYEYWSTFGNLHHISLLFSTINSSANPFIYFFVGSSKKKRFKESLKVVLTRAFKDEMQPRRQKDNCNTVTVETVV
Assay: FRET or BRET; β-arrestin recruitment: BRET between β-arrestin II-RLuc and receptor-YFP in HEK-293T cells 48 h after transfection, with or without ACE2-HA; stimulated 10 min with agonist (Ang II, CGP or Ang 1-7, 0.1 nM to 3 µM); 5 µM coelenterazine H

binding: binds
Substance: β-arrestin II-RLuc (from UniProt P32121 1-409)
